# In the supplement of paper PMC7830784:
# Structures can show the parent of a compound that is named as a salt. The list shows a part of the results. Repeats in this data set agree poorly, so a single value says little. Starred links: 1 amine or outer side, 2 acyl side, 3 side chain; linkers in the order of their positions; H or OH if unused. Positions of bridges follow the written chain, without caps; N, C: chain ends. Non-standard residues stand in square brackets, D forms with d. Residues, ends and D or L forms follow the SMILES beside them. Chains are numbered I, II in the order given. Actinocin(9to1) = Cc1c2oc3c(C)ccc(C(=O)[*:1])c3nc-2c(C(=O)[*:2])c(N)c1=O; NMeV = CN[C@H](C(=O)O)C(C)C; Sar = CNCC(=O)O
# Tested on: Brugia pahangi adult female
# Experiment: motility inhibition on day 3 relative to DMSO vehicle; higher = more active
# Settings: 10 µM; 3 days
row,Compound,motility inhibition on day 3
1,CC[C@H](C)C(=O)O[C@H]1C[C@H](O)C=C2C=C[C@H](C)[C@H](CC[C@@H](O)C[C@@H](O)CC(=O)O)[C@H]21 [pravastatin sodium],13.7%
2,CC1=C(C(=O)O)N2C(=O)[C@@H](NC(=O)[C@H](N)c3ccccc3)[C@H]2SC1 [cephalexin],12.6%
3,CC(C)(C)NCC(O)COc1cccc2c1CC(O)C(O)C2 (stereo unspecified) [nadolol],< 0%
4,O=C(c1cccnc1)N1CCOCC1 [nicopholine],38.3%
5,OCC(S)CS (stereo unspecified) [dimercaptopropanol],< 0%
6,COc1ccc2cc3[n+](cc2c1OC)CCc1cc2c(cc1-3)OCO2 [berberine chloride],16.5%
7,"Cc1c2oc3c(C)ccc(C(=O)N[C@@H]4C(=O)N[C@H](C(C)C)C(=O)N5CCC[C@H]5C(=O)N(C)CC(=O)N(C)[C@@H](C(C)C)C(=O)O[C@@H]4C)c3nc-2c(C(=O)N[C@@H]2C(=O)N[C@H](C(C)C)C(=O)N3CCC[C@H]3C(=O)N(C)CC(=O)N(C)[C@@H](C(C)C)C(=O)O[C@@H]2C)c(N)c1=O [dactinomycin] (I: T[dV]P[Sar][NMeV] / II: T[dV]P[Sar][NMeV]; ester I:1-I:C, II:1-II:C; linker I:N-II:N via Actinocin(9to1))",13.5%
8,"Cc1c2oc3c(C)ccc(C(=O)N[C@@H]4C(=O)N[C@H](C(C)C)C(=O)N5CCC[C@H]5C(=O)N(C)CC(=O)N(C)[C@@H](C(C)C)C(=O)O[C@@H]4C)c3nc-2c(C(=O)N[C@@H]2C(=O)N[C@H](C(C)C)C(=O)N3CCC[C@H]3C(=O)N(C)CC(=O)N(C)[C@@H](C(C)C)C(=O)O[C@@H]2C)c(N)c1=O (I: T[dV]P[Sar][NMeV] / II: T[dV]P[Sar][NMeV]; ester I:1-I:C, II:1-II:C; linker I:N-II:N via Actinocin(9to1))",16.2%
9,COc1ccc2c(c1)c(CC(=O)OCC(=O)O)c(C)n2C(=O)c1ccc(Cl)cc1 [acemetacin],< 0%
10,Cc1nccn1CC1CCc2c(c3ccccc3n2C)C1=O (stereo unspecified) [ondansetron],8.96%
11,NC(=O)c1cc[n+](CC2=C(C(=O)[O-])N3C(=O)[C@@H](NC(=O)Cc4cccs4)[C@H]3SC2)cc1 [cefalonium],2.55%
12,O=C1C(O)=C(O)C(=O)C(O)=C1O [tetroquinone],< 0%
13,CC(=O)NC[C@H]1CN(c2ccc(N3CCOCC3)c(F)c2)C(=O)O1 [linezolid],6.39%
14,CC(=O)O[C@]1(C(C)=O)CC[C@H]2[C@@H]3C=C(C)C4=CC(=O)CC[C@]4(C)[C@H]3CC[C@@]21C [megestrol acetate],< 0%
15,Cc1c(C)c2c(c(C)c1O)CCC(C)(CCCC(C)CCCC(C)CCCC(C)C)O2 (stereo not drawn) [alpha-tochopherol],1.16%
16,Nc1nc(=O)[nH]cc1F [flucytosine],2.86%
17,Nc1nnc(-c2cccc(Cl)c2Cl)c(N)n1 [lamotrigine],1.22%
18,CC[C@@]1(O)C(=O)OCc2c1cc1n(c2=O)Cc2cc3c(CN(C)C)c(O)ccc3nc2-1 [topotecan hydrochloride],12.5%
19,CCOc1cc(N)c([N+](=O)[O-])cc1C(=O)NC1CCN(CC2CC=CCC2)CC1 (stereo unspecified) [Cinitapride],< 0%
20,Cc1nnc(SCC2=C(C(=O)O)N3C(=O)[C@@H](NC(=O)Cn4cnnn4)[C@H]3SC2)s1 [cefazolin sodium],< 0%
21,O=c1[nH]c(=O)n([C@H]2C[C@H](O)[C@@H](CO)O2)cc1C(F)(F)F [trifluridine],< 0%
22,COc1ccc2c3c1O[C@H]1C[C@@H](O)C=C[C@@]31CCN(C)C2 [galanthamine hydrobromide],14.6%

# Some of the entries so far, bar-delimited.
row | Compound | motility inhibition on day 3
7 | Cc1c2oc3c(C)ccc(C(=O)N[C@@H]4C(=O)N[C@H](C(C)C)C(=O)N5CCC[C@H]5C(=O)N(C)CC(=O)N(C)[C@@H](C(C)C)C(=O)O[C@@H]4C)c3nc-2c(C(=O)N[C@@H]2C(=O)N[C@H](C(C)C)C(=O)N3CCC[C@H]3C(=O)N(C)CC(=O)N(C)[C@@H](C(C)C)C(=O)O[C@@H]2C)c(N)c1=O [dactinomycin] (I: T[dV]P[Sar][NMeV] / II: T[dV]P[Sar][NMeV]; ester I:1-I:C, II:1-II:C; linker I:N-II:N via Actinocin(9to1)) | 13.5%
8 | Cc1c2oc3c(C)ccc(C(=O)N[C@@H]4C(=O)N[C@H](C(C)C)C(=O)N5CCC[C@H]5C(=O)N(C)CC(=O)N(C)[C@@H](C(C)C)C(=O)O[C@@H]4C)c3nc-2c(C(=O)N[C@@H]2C(=O)N[C@H](C(C)C)C(=O)N3CCC[C@H]3C(=O)N(C)CC(=O)N(C)[C@@H](C(C)C)C(=O)O[C@@H]2C)c(N)c1=O (I: T[dV]P[Sar][NMeV] / II: T[dV]P[Sar][NMeV]; ester I:1-I:C, II:1-II:C; linker I:N-II:N via Actinocin(9to1)) | 16.2%

# (continued)

row,Compound,motility inhibition on day 3
1,CCCC(=O)O[C@]1(C(=O)CO)CC[C@H]2[C@@H]3CCC4=CC(=O)CC[C@]4(C)[C@H]3[C@@H](O)C[C@@]21C [hydrocortisone butyrate],< 0%
2,CC1(C)S[C@@H]2[C@H](NC(=O)COc3ccccc3)C(=O)N2[C@H]1C(=O)O [penicillin v potassium],7.18%
3,CC(C)NC(=N)NC(=N)Nc1ccc(Cl)cc1 [chlorguanide hydrochloride],29%
4,CN(C)CC[C@@H](c1ccc(Br)cc1)c1ccccn1,4.43%
5,CN(Cc1ccc(C(C)(C)C)cc1)Cc1cccc2ccccc12 [butenafine hydrochloride],9.77%
6,CCCCCCCCNC(C)C(O)c1ccc(SC(C)C)cc1 (stereo unspecified) [suloctidil],98.7%
7,C[C@H]1O[C@@H](O[C@H]2[C@@H](O)C[C@H](O[C@H]3[C@@H](O)C[C@H](O[C@H]4CC[C@@]5(C)[C@H](CC[C@@H]6[C@@H]5CC[C@]5(C)[C@@H](C7=CC(=O)OC7)CC[C@]65O)C4)O[C@@H]3C)O[C@@H]2C)C[C@H](O)[C@@H]1O [digitoxin],3.31%
8,CC(=O)CC(c1ccc([N+](=O)[O-])cc1)c1c(O)c2ccccc2oc1=O (stereo unspecified) [acenocoumarol],< 0%
9,S=c1[nH]cnc2nc[nH]c12 [mercaptopurine],10.7%
10,Cc1cccc(Nc2ccncc2S(=O)(=O)NC(=O)NC(C)C)c1 [torsemide],3.49%
11,O=C(O)CCCC[C@@H]1CCSS1 [thioctic acid],< 0%
12,COc1cc(NS(=O)(=O)c2ccc(N)cc2)nc(OC)n1 [sulfadimethoxine],27.7%
13,CC[N+](CC)(CC(=O)Nc1c(C)cccc1C)Cc1ccccc1 [denatonium benzoate],28.9%
14,CC1(C)O[C@@H]2[C@@H](CO[C@@]3(COS(N)(=O)=O)OC(C)(C)O[C@@H]23)O1 [topiramate],4.78%
15,CN(C)c1cc(NC(=O)CNC(C)(C)C)c(O)c2c1C[C@H]1C[C@H]3[C@H](N(C)C)C(O)=C(C(N)=O)C(=O)[C@@]3(O)C(O)=C1C2=O [tigecycline],23%
16,O=C1N=C(O)NC1(c1ccccc1)c1ccccc1 [Phenytoin sodium],6.17%
17,CC(=O)OCC(=O)[C@@]1(O)[C@H](OC(C)=O)C[C@H]2[C@@H]3CCC4=CC(=O)C=C[C@]4(C)[C@@]3(F)[C@@H](O)C[C@@]21C [triamcinolone diacetate],11.3%
18,CC(C)Cn1cnc2c(N)nc3ccccc3c21 [imiquimod],31.9%
19,NC(=O)N1c2ccccc2CC(=O)c2ccccc21 [oxcarbazepine],< 0%
20,Cc1c(NC(C)C)c(=O)n(-c2ccccc2)n1C [ramifenazone],< 0%
21,NCCc1cc[nH]n1 [betazole hydrochloride],< 0%
22,COc1ccc([C@@H]2Sc3ccccc3N(CCN(C)C)C(=O)[C@@H]2OC(C)=O)cc1 [diltiazem hydrochloride],36%

# Two entries from above in another layout.
row	Compound	motility inhibition on day 3
4	CN(C)CC[C@@H](c1ccc(Br)cc1)c1ccccn1	4.43%
5	CN(Cc1ccc(C(C)(C)C)cc1)Cc1cccc2ccccc12 [butenafine hydrochloride]	9.77%

# Next part.

row,Compound,motility inhibition on day 3
1,COc1ccc([C@@H]2Sc3ccccc3N(CCN(C)C)C(=O)[C@@H]2OC(C)=O)cc1 [Diltiazem hydrochloride],28.4%
2,Cc1cn([C@H]2C[C@H](N=[N+]=[N-])[C@@H](CO)O2)c(=O)[nH]c1=O [zidovudine [azt]],11.5%
3,CCCCCCCCCCOc1cc2c(O)c(C(=O)OCC)cnc2cc1OCC [decoquinate],7.54%
4,CN(C)CCN(Cc1ccc(Cl)cc1)c1ccccn1 [chloropyramine hydrochloride],23.7%
5,NS(=O)(=O)Cc1noc2ccccc12 [Zonisamide],1.13%
6,CC(C[N+](C)(C)C)OC(N)=O (stereo unspecified) [Bethanechol chloride],23.7%
7,NCCC(O)(P(=O)(O)O)P(=O)(O)O [Pamidronic acid],7.81%
8,COc1ccc(CN(CCN(C)C)c2ncccn2)cc1 [thonzylamine hydrochloride],7.7%
9,NCC(=O)CCC(=O)O [aminolevulinic acid hydrochloride],16.3%
10,CC(=O)O[C@H]1C[C@@H]2CC[C@@H]3[C@H](CC[C@@]4(C)[C@H]3C[C@H](N3CC[N+](C)(C)CC3)[C@@H]4OC(C)=O)[C@@]2(C)C[C@@H]1N1CC[N+](C)(C)CC1 [Pipecuronium Bromide],16.5%
11,NC(=O)c1ccc[n+]([C@@H]2O[C@H](COP(=O)([O-])OP(=O)(O)OC[C@H]3O[C@@H](n4cnc5c(N)ncnc54)[C@H](O)[C@@H]3O)[C@@H](O)[C@H]2O)c1 [nadide],< 0%
12,O=C(CCCN1CCC(O)(c2ccc(Cl)cc2)CC1)c1ccc(F)cc1 [Haloperidol],< 0%
13,Cc1ccc(C)c(OCCCC(C)(C)C(=O)O)c1 [gemfibrozil],11.5%
14,O=C(O)C[C@H](O)C[C@H](O)/C=C/c1c(C2CC2)nc2ccccc2c1-c1ccc(F)cc1 [pitavastatin calcium],18.9%
15,O=C(O)/C=C/C(=O)O [fumaric acid],2.35%
16,C[C@]12CCC(=O)C=C1C=C[C@@H]1[C@@H]2CC[C@@]2(C)[C@H]1CC[C@@]21CCC(=O)O1 [canrenone],7.07%
17,CC1(C)[C@@H](O)CC[C@]2(C)[C@H]3C(=O)C=C4[C@@H]5C[C@@](C)(C(=O)O)CC[C@]5(C)CC[C@@]4(C)[C@]3(C)CC[C@@H]12 [enoxolone],< 0%
18,COC(=O)CCc1ccc(OCC(O)CNC(C)C)cc1 (stereo unspecified),< 0%
19,CN1C(C(=O)Nc2ccccn2)=C(O)c2ccccc2S1(=O)=O [piroxicam],< 0%
20,COc1c(C)c2c(c(O)c1C/C=C(\C)CCC(=O)OCCN1CCOCC1)C(=O)OC2 [mycophenolate mofetil],6.26%
21,COCCOC(=O)C1=C(C)NC(C)=C(C(=O)OC(C)C)C1c1cccc([N+](=O)[O-])c1 (stereo unspecified) [Nimodipine],47.3%
22,NCCS [Cysteamine hydrochloride],18.2%
